Drawing on PubChem BioAssay AID248 (DTP/NCI, 2004), this text covers T/C for three compounds.

The list does not hold the whole screen: it gathers some chemical classes. Not every dose and run of a compound is shown. T/C gives the treated animals as a percentage of the vehicle group. For survival time, this PubChem deposit counts one and a half times the control or more as active, and values a quarter to a half above the control carry no call in these data; other NCI protocols may use other cut-offs. Some entries show no survivor count and are marked so; the dose need not have been tolerated. Schedule codes are those of the source, read here as Q, the interval in days (D) or hours (H), X, the number of doses. Some entries were tested several times; the results are listed from low to high. Some schedules carry Z or #; the key to these is not given. Signs of the kind (2×) say how often a value occurs here.

The subject of this assay is L1210 leukemia ip in BDF1 mice, survival T/C. The assay is described as follows: NCI In Vivo Anticancer Drug Screen. Data for tumor model L1210 Leukemia (intraperitoneal) in B6D2F1 (BDF1) mice. The settings on record: higher T/C = longer survival.

In the case of `CC(C(=O)O)N(CCCl)CCCl` (stereo not given), the T/C was 93 % of control [survivor count not shown] (T/C endpoint: mean survival time, dose: 0.19 mg/kg/injection, schedule: Q01DX Z (ip), vehicle: saline); 125 % of control [survivor count not shown] (T/C endpoint: mean survival time, dose: 0.25 mg/kg/injection, schedule: Q01DX010 (ip), vehicle: saline); 89 % of control [survivor count not shown] (T/C endpoint: mean survival time, dose: 0.38 mg/kg/injection, schedule: Q01DX Z (ip), vehicle: saline); 112 % of control [survivor count not shown] (T/C endpoint: mean survival time, dose: 0.5 mg/kg/injection, schedule: Q01DX001 (ip), vehicle: saline); 127 % of control [survivor count not shown] (T/C endpoint: mean survival time, dose: 0.5 mg/kg/injection, schedule: Q01DX010 (ip), vehicle: saline); 120 % of control [survivor count not shown] (T/C endpoint: mean survival time, dose: 0.66 mg/kg/injection, schedule: Q01DX Z (ip), vehicle: carboxymethylcellulose (CMC)). For the same compound, the T/C was 115 % of control [survivor count not shown] (T/C endpoint: mean survival time, dose: 0.75 mg/kg/injection, schedule: Q01DX Z (ip), vehicle: saline); 113 % of control [survivor count not shown] (T/C endpoint: mean survival time, dose: 0.82 mg/kg/injection, schedule: Q01DX Z (ip), vehicle: carboxymethylcellulose (CMC)); 126 % of control [survivor count not shown] (T/C endpoint: mean survival time, dose: 0.83 mg/kg/injection, schedule: Q01DX Z (ip), vehicle: carboxymethylcellulose (CMC)); 125 % of control [survivor count not shown] (T/C endpoint: mean survival time, dose: 1.0 mg/kg/injection, schedule: Q01DX001 (ip), vehicle: saline); 132 [survivor count not shown] and 135 % of control [survivor count not shown] (T/C endpoint: mean survival time, dose: 1.0 mg/kg/injection, schedule: Q01DX009 (ip), vehicle: saline); 122 [survivor count not shown] and 128 % of control [survivor count not shown] (T/C endpoint: mean survival time, dose: 1.0 mg/kg/injection, schedule: Q01DX010 (ip), vehicle: saline). Besides, the T/C runs as follows: (T/C endpoint: mean survival time, dose: 1.5 mg/kg/injection, schedule: Q01DX Z (ip), vehicle: carboxymethylcellulose (CMC)) 114 % of control [survivor count not shown]; (T/C endpoint: mean survival time, dose: 1.5 mg/kg/injection, schedule: Q01DX Z (ip), vehicle: saline) 126 % of control [survivor count not shown] (2×); (T/C endpoint: mean survival time, dose: 1.65 mg/kg/injection, schedule: Q01DX Z (ip), vehicle: carboxymethylcellulose (CMC)) 127 % of control [survivor count not shown] (2×); (T/C endpoint: mean survival time, dose: 2.0 mg/kg/injection, schedule: Q01DX001 (ip), vehicle: saline) 128 % of control [survivor count not shown]; (T/C endpoint: mean survival time, dose: 2.0 mg/kg/injection, schedule: Q01DX009 (ip), vehicle: saline) 142 [survivor count not shown] and 176 % of control [survivor count not shown]; (T/C endpoint: mean survival time, dose: 2.0 mg/kg/injection, schedule: Q01DX010 (ip), vehicle: saline) 141 [survivor count not shown] and 153 % of control [survivor count not shown]. In addition, the T/C by setting is: (T/C endpoint: mean survival time, dose: 2.2 mg/kg/injection, schedule: Q01DX Z (ip), vehicle: other) 130 [survivor count not shown] and 134 % of control [survivor count not shown]; (T/C endpoint: mean survival time, dose: 3.0 mg/kg/injection, schedule: Q01DX Z (ip), vehicle: saline) 120 % of control [survivor count not shown]; (T/C endpoint: mean survival time, dose: 3.3 mg/kg/injection, schedule: Q01DX Z (ip), vehicle: carboxymethylcellulose (CMC)) 150 % of control [survivor count not shown]; (T/C endpoint: mean survival time, dose: 3.3 mg/kg/injection, schedule: Q01DX Z (ip), vehicle: other) 134 [survivor count not shown] and 142 % of control [survivor count not shown]; (T/C endpoint: mean survival time, dose: 3.7 mg/kg/injection, schedule: Q01DX Z (ip), vehicle: carboxymethylcellulose (CMC)) 130 % of control [survivor count not shown]; (T/C endpoint: mean survival time, dose: 4.0 mg/kg/injection, schedule: Q01DX001 (ip), vehicle: saline) 128 [survivor count not shown] and 143 % of control [survivor count not shown]. Also, the T/C reads like this: (T/C endpoint: mean survival time, dose: 4.0 mg/kg/injection, schedule: Q01DX009 (ip), vehicle: saline) 134 [survivor count not shown] and 158 % of control [survivor count not shown]; (T/C endpoint: mean survival time, dose: 4.0 mg/kg/injection, schedule: Q01DX010 (ip), vehicle: saline) 89 % of control [survivor count not shown]; (T/C endpoint: mean survival time, dose: 5.0 mg/kg/injection, schedule: Q01DX Z (ip), vehicle: other) 139 [survivor count not shown] and 141 % of control [survivor count not shown]; (T/C endpoint: mean survival time, dose: 6.0 mg/kg/injection, schedule: Q01DX Z (ip), vehicle: saline) 89 % of control [survivor count not shown]; (T/C endpoint: mean survival time, dose: 7.4 mg/kg/injection, schedule: Q01DX Z (ip), vehicle: carboxymethylcellulose (CMC)) 116 % of control [survivor count not shown]; (T/C endpoint: mean survival time, dose: 7.5 mg/kg/injection, schedule: Q01DX Z (ip), vehicle: other) 134 [survivor count not shown] and 136 % of control [survivor count not shown]. The T/C reads like this: (T/C endpoint: mean survival time, dose: 8.0 mg/kg/injection, schedule: Q01DX001 (ip), vehicle: saline) 125 % of control [survivor count not shown]; (T/C endpoint: mean survival time, dose: 8.0 mg/kg/injection, schedule: Q01DX009 (ip), vehicle: saline) 88 % of control [survivor count not shown]; (T/C endpoint: mean survival time, dose: 16.0 mg/kg/injection, schedule: Q01DX001 (ip), vehicle: saline) 162 % of control [survivor count not shown]; (T/C endpoint: median survival time, dose: 1.0 mg/kg/injection, schedule: Q01DX009 (ip), vehicle: saline) 128 [survivor count not shown] and 133 % of control [survivor count not shown]; (T/C endpoint: median survival time, dose: 2.0 mg/kg/injection, schedule: Q01DX009 (ip), vehicle: saline) 138 [survivor count not shown] and 150 % of control [survivor count not shown]; (T/C endpoint: median survival time, dose: 4.0 mg/kg/injection, schedule: Q01DX009 (ip), vehicle: saline) 138 [survivor count not shown] and 185 % of control [survivor count not shown]. The T/C (T/C endpoint: median survival time, dose: 8.0 mg/kg/injection, schedule: Q01DX009 (ip), vehicle: saline) was 107 % of control [survivor count not shown].

For `Cc1ccc(CN(CCCl)CCCl)cc1C`, the T/C (T/C endpoint: mean survival time, dose: 12.0 mg/kg/injection, schedule: Q01DX015 (ip), vehicle: saline) is 112 % of control [survivor count not shown] and the T/C (T/C endpoint: mean survival time, dose: 18.0 mg/kg/injection, schedule: Q01DX015 (ip), vehicle: saline) is 93 % of control [survivor count not shown].

On to `O=C(O)COc1cccc(N(CCCl)CCCl)c1`, for which the T/C by setting is: (T/C endpoint: mean survival time, dose: 19.3 mg/kg/injection, schedule: Q01DX Z (ip), vehicle: methylcellulose (MC)) 119 % of control [survivor count not shown]; (T/C endpoint: mean survival time, dose: 20.0 mg/kg/injection, schedule: Q01DX Z (ip), vehicle: methylcellulose (MC)) 138 % of control [survivor count not shown]; (T/C endpoint: mean survival time, dose: 29.0 mg/kg/injection, schedule: Q01DX Z (ip), vehicle: methylcellulose (MC)) 104 % of control [survivor count not shown]; (T/C endpoint: mean survival time, dose: 30.0 mg/kg/injection, schedule: Q01DX Z (ip), vehicle: methylcellulose (MC)) 121 % of control [survivor count not shown]; (T/C endpoint: mean survival time, dose: 43.0 mg/kg/injection, schedule: Q01DX Z (ip), vehicle: methylcellulose (MC)) 114 % of control [survivor count not shown]; (T/C endpoint: mean survival time, dose: 44.0 mg/kg/injection, schedule: Q01DX Z (ip), vehicle: methylcellulose (MC)) 130 % of control [survivor count not shown]. Also, the T/C is, setting by setting: (T/C endpoint: mean survival time, dose: 45.0 mg/kg/injection, schedule: Q01DX Z (ip), vehicle: methylcellulose (MC)) 126 % of control [survivor count not shown]; (T/C endpoint: mean survival time, dose: 65.0 mg/kg/injection, schedule: Q01DX Z (ip), vehicle: methylcellulose (MC)) 97 % of control [survivor count not shown]; (T/C endpoint: mean survival time, dose: 66.0 mg/kg/injection, schedule: Q01DX Z (ip), vehicle: methylcellulose (MC)) 140 % of control [survivor count not shown]; (T/C endpoint: mean survival time, dose: 67.0 mg/kg/injection, schedule: Q01DX Z (ip), vehicle: methylcellulose (MC)) 128 % of control [survivor count not shown]; (T/C endpoint: mean survival time, dose: 100.0 mg/kg/injection, schedule: Q01DX Z (ip), vehicle: methylcellulose (MC)) 130 % of control [survivor count not shown].
